PMC8467208
These are yes or no findings as the source states them, for the method shown. Binding seen in cells or lysates may run through a third protein. A yes stands for co-enrichment or nearness to the bait. Other partners may have been found. Tags and fused reporters may be left off the sequences shown.

B1: KAT8 (protein, UniProt Q9D1P2 1-458)
chain: MAAQGATAAVAATTSGTVGEGEPGPGENAAVEGPARSPGRVSPPTPARGEPEVTVEIGETYLCRRPDSTWHSAEVIQSRVNDQEGREEFYVHYVGFNRRLDEWVDKNRLALTKTVKDAVQKNSEKYLSELAEQPERKITRNQKRKHDEINHVQKTYAEMDPTTAALEKEHEAITKVKYVDKIHIGNYEIDAWYFSPFPEDYGKQPKLWLCEYCLKYMKFEKSYRFHLGQCQWRQPPGKEIYRKSNISVYEVDGKDHKIYCQNLCLLAKLFLDHKTLYFDVEPFVFYILTEVDRQGAHIVGYFSKEKESPDGNNVACILTLPPYQRRGYGKFLIAFSYELSKLESTVGSPEKPLSDLGKLSYRSYWSWVLLEILRDFRGTLSIKDLSQMTSITQNDIISTLQSLNMVKYWKGQHVICVTPKLVEEHLKSAQYKKPPITVDSVCLKWAPPKHKQVKLSKK
B2: RPS6KC1 (protein, UniProt Q8BLK9 1-1056)
chain: MTSPWGHSADLARFYTVTEPQRHPRGYTVYKVTARVVSRRNPEDVQEIIVWRRYSDFKKLHRELWQIHRNAFRHSELFPPFAKGTVFGRFDKTVIEERRQCAEDLLQFSANIPALYNSRQLQDFFKGGVISDGSELIGPAEAYPDSPANAFPECGTEGFSSDSDLLSLTVDADSLAEVDDGMASRQGSPSRTFGLSLSTDSSAVGAVASDSEPSRVEDRESRSLFPSSLKPRLGRRDYLEKAGELIKLALKKEEEDDYEAASDFYRKGVDLLLEGVQGESSPTRREAVKRRTAEYLMRAESICSLRAAPQLHTGPQPPGSLSSRPPWSLRSPAEELKAFRVLGVIDKVLLVMDTRTEQTFILKGLRKSSECSRNRKTIIPRCVPNMVCLHTYIISEESVFLVLQRAEGGKLWSYISKFLNRSSQESLDIKEGRPSMPPRVCLQQPSASPQGGSSFESRGSDTGSMLKALPLKTSLTPSSQDDSNQEDDGQPSSPKWLDSGSSSEDECTAGYLTLCNEYGQEKMDLVSLSEESVMQPEGDKADTQAVSSPASLATGSVSPSTHLRVFSGGEDLEAVSSPPTSESLSRSKNSPMEFFRIDSKDSTSELLGLDFGEKLHSLKPEPLKALFTLEDGDSPSQSLDPGESKRESEAQDSVSRGSDDSVPVISFKEAAAEAISGAEEGRPDLLVNLPGELQPTKEASAMDPKFSQASAGRLDSKLLEAPDVLCLRLSSEQCHGLGPEGPEELSDPTEFCPGGVIPEHDAQADPGVLFEAAVDHRSSPDQFLFSSLRSESDRLGQVEVVVTAQALQESLFHISSPCSGANKEHSAYADTATSEEVLLFTEPTKEEANSLFQRGSEAQERGVGAGEADKEIHQIFEDLDKRLAASSRFFIPEGCIQRWAAEMVVALDALHREGIVCRDLNPNNILLNDGGHIQLTYFSRWSEVEDSCDSDAVARMYCAPEVGAVTEETEACDWWSLGAVLFELLTGKTLVECHPAGINTHTTLNMPGCVSEEARSLIQQLLQFNPMERLGAGVAGVEDIKSHPFFTPVDWAELTR

Target: T1, HA-tagged SLC38A9 (mouse) (UniProt Q8BGD6)
T1 sequence: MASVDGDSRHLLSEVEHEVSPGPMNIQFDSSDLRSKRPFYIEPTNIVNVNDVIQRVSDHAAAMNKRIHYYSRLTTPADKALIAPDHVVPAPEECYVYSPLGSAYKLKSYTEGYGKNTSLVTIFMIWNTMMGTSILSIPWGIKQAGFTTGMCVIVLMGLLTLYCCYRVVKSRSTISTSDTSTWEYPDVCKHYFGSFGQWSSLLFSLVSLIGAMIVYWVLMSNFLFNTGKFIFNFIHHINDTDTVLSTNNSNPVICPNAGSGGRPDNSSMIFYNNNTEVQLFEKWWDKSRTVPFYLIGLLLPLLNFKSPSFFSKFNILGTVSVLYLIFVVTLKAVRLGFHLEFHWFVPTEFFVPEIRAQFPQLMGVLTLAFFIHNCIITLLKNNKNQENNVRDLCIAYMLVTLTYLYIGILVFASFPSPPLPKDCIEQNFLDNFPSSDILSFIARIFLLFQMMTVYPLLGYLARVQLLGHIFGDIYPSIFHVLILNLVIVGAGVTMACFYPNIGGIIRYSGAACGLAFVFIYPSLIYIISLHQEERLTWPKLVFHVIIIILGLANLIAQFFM
Test: affinity purification with mass spectrometry; C2C12 cells transfected 48 h with HA-tagged SLC38A9 or empty pCMV-HA; anti-HA-Tag (3724) immunoprecipitation from lysate, 10% SDS-PAGE, Coomassie, differential bands cut, LC-MS/MS

| Binder | binding |
| --- | --- |
| B1 | binds |
| B2 | binds |
